# Source: publication PMC10564737, “Structure-based design of a phosphotyrosine-masked covalent ligand targeting the E3 ligase SOCS2” (Nature Communications, 2023)
# The chains behind the UniProt entries cited, without tags or fusion partners. Residues count along the entry.
# UniProt O14508, 32-198: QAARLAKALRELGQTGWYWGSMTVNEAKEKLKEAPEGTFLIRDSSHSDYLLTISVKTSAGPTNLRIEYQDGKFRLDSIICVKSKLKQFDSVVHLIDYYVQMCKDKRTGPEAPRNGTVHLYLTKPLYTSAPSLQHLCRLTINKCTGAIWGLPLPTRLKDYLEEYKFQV
# Where “and” joins values, the source holds several entries; their conditions need not be identical. Equal values may be shown once. This continues a long series; more values of the same kind are listed elsewhere.
# Target: T1, SBC2 (Homo sapiens, UniProt O14508)
# T1 construct: SOCS2 (amino acids 32–198); His6 (N, cleaved yes); made in house; host or cells: E. coli BL21(DE3)
# Assay: Covalent fluorescence polarization (FP) probe displacement assay
# Type: binding
# From the text: With the specific covalent modification of Cys111 established, we decided to fully characterize MN551 as a covalent SOCS2 inhibitor. […] (Fig. 2g, h, Supplementary Fig. 9). Due to the covalent nature of the competing inhibitor, a time-dependent reduction in the fraction of protein-bound probe is observed. […] This value illustrates reasonable specificity for a covalent inhibitor, with nonetheless scope for future optimization. In addition to characterizing the kinetic covalency parameters, we have also assessed the stability of the MN551 by monitoring its reactivity (half-life >70 min) with reduced glutathione (GSH) (Supplementary Fig. 10)[35].
# To monitor the SBC2-ligand binding kinetics we designed a fluorescein-labeled small-molecule probe - compound 26. The fluorescence polarization (anisotropy) of a threefold serial dilution of 50 µM SBC2 in 10 nM of the probe in 100 mM HEPES pH 7.5, 50 mM NaCl, 0.5 mM TCEP, 2% DMSO was measured to determine the KL (Supplementary Fig. 9A) (BMG Labtech PHERAstar – firmware v1.33). Protein titration and the curves were fitted using GraphPad Prism 9, using one-site fitting models to determine the probe binding constant, KL. Samples were run in triplicate in 384 well plates, using a total volume per well of 16 μL. The bound fraction of the probe is measure using the equation:1 Fb=Af−A/Af−Ab Where,
# A time-dependent reduction in probe anisotropy were measured for a 2-fold serial dilution of […] compound MN551 in 10 nM probe +300 μM SBC2. To determine the initial reversible binding affinity, the initial bound fraction of the probe at time = 0, Fbo (the y-intercept in Fb v/s Time plot, Supplementary Fig. 9B) was plotted against MN551 concentration, and the obtained IC50 is then converted to Ki (Supplementary Fig. 9C)[17]. The slope from Fb versus time graph when divided by Fbo gives rate of covalency, kobs. A plot of kobs v/s MN551 concentration using Michaelis–Menten model of GraphPad Prism 9, provides the parameters kinact (maximum potential rate of inactivation) and KI (concentration of MN551 at which kobs = kinact/2) (Supplementary Fig. 9D, E).
# The observed first-order rate constant, kobs is related to KI and kinact by the equation:2 kobs=kinactI/KI+I
# At [I]«[KI] the above equation is converted to3 […]
# The slope from the plot of kobs against concentration of MN551 gives us the covalent efficiency parameter kinact/KI (Supp Fig. 9F)[30],[33].
# [1] = MN551 132.81 nM; Cycle 9 (40 min)
# [2] = MN551 132.81 nM; Cycle 10 (45 min)
# [3] = MN551 132.81 nM; Cycle 11 (50 min)
# [4] = MN551 132.81 nM; Cycle 12 (55 min); n=1
# [5] = MN551 132.81 nM; Cycle 13 (60 min); n=1
# [6] = MN551 132.81 nM; Cycle 14 (65 min); n=1
# [7] = MN551 132.81 nM; Cycle 15 (70 min); n=1
# [8] = MN551 132.81 nM; Cycle 16 (75 min); n=1
# [9] = MN551 185.934 nM, Cycle 8 (35 min)
# [10] = MN551 185.934 nM, Cycle 9 (40 min)
# [11] = MN551 185.934 nM, Cycle 10 (45 min)
# [12] = MN551 185.934 nM, Cycle 11 (50 min)
# [13] = MN551 185.934 nM, Cycle 16 (75 min), n=1
# [14] = MN551 185.934 nM, Cycle 17 (80 min), n=1
# [15] = MN551 185.934 nM, Cycle 18 (85 min), n=1
# [16] = MN551 185.934 nM; Cycle 7 (30 min)
# [17] = MN551 185.934 nM; Cycle 8 (35 min)
# [18] = MN551 185.934 nM; Cycle 9 (40 min)
# [19] = MN551 185.934 nM; Cycle 10 (45 min)
# [20] = MN551 185.934 nM; Cycle 11 (50 min)
# [21] = MN551 185.934 nM; Cycle 12 (55 min); n=1
# [22] = MN551 185.934 nM; Cycle 13 (60 min); n=1
# [23] = MN551 185.934 nM; Cycle 14 (65 min); n=1
# [24] = MN551 185.934 nM; Cycle 15 (70 min); n=1
# [25] = MN551 185.934 nM; Cycle 16 (75 min); n=1
# [26] = MN551 195.312 nM, Cycle 8 (35 min)
# [27] = MN551 195.312 nM, Cycle 9 (40 min)
# [28] = MN551 195.312 nM, Cycle 10 (45 min)
smiles,measurement,setting,value
O=C(CCl)Nc1cccc(CNC(=O)[C@H](Cc2ccc(OP(=O)(O)O)cc2)NC(=O)Cc2ccc(F)cc2)c1 [MN551],"Anisotropy data 485,520,520",[1],267.3 and 263.4 and 263.6
same,Fb,[1],1.0058 and 1.047 and 1.034 and 0.9835 and 0.9433 and 0.9593
same,Anisotropy,[2],274.9 and 273.2 and 271.4
same,"Anisotropy data 485,520,520",[2],269.8 and 264.2 and 264.3
same,Fb,[2],1.015 and 1.025 and 1.048 and 0.9849 and 0.949 and 0.9558
same,Anisotropy,[3],272.7 and 271.9 and 269.8
same,Fb,[3],0.9723 and 0.9527 and 0.961
same,Anisotropy,MN551 132.81 nM; Cycle 11 (50 min); n=1,266.6 and 259.3 and 264.4
same,Anisotropy,[4],265.7 and 259.8 and 261.2
same,Anisotropy based on Raw Data (485),[4],275.3 and 273.6 and 267.2
same,Anisotropy,[5],266.2 and 258.7 and 258.4
same,Anisotropy based on Raw Data (485),[5],276 and 273.1 and 267.8
same,Anisotropy,[6],263.1 and 257 and 258
same,Anisotropy based on Raw Data (485),[6],272.2 and 271.8 and 265.3
same,Anisotropy,[7],263.9 and 255.7 and 259
same,Anisotropy based on Raw Data (485),[7],274.4 and 271 and 267.7
same,Anisotropy,[8],261.1 and 257.1 and 257
same,Anisotropy based on Raw Data (485),[8],270.6 and 272.1 and 263.7
same,"Anisotropy data 485,520,520",MN551 132.81 nM; Cycle 19 (90 min); n=1,266.9 and 265.6 and 265
same,"Anisotropy data 485,520,520",MN551 132.81 nM; Cycle 20 (95 min); n=1,267.8 and 264.8 and 263.2
same,Fb,"MN551 185.934 nM, Cycle 7 (30 min)",0.8947 and 0.8274 and 0.875
same,Anisotropy based on Raw Data (485),[9],278.3 and 274.5 and 271.2
same,Fb,[9],0.8507 and 0.8413 and 0.8575
same,Anisotropy based on Raw Data (485),[10],275.7 and 275.4 and 267.9
same,Fb,[10],0.8557 and 0.8458 and 0.8527
same,Anisotropy based on Raw Data (485),[11],274.8 and 273.1 and 267.2
same,Fb,[11],0.8791 and 0.8583 and 0.8495
same,Anisotropy based on Raw Data (485),[12],273.1 and 272.9 and 266.3
same,Fb,[12],0.8806 and 0.8612 and 0.8383
same,Anisotropy,"MN551 185.934 nM, Cycle 13 (60 min), n=1",270.4 and 268.1 and 266.4
same,Anisotropy,"MN551 185.934 nM, Cycle 14 (65 min), n=1",268.3 and 267.6 and 265.6
same,Anisotropy,"MN551 185.934 nM, Cycle 15 (70 min), n=1",268.2 and 266 and 265.1
same,Anisotropy,[13],267 and 265.7 and 262.1
same,"Normalised anisotropy (0 nM MN551 = 1, free probe = 0)",[13],0.9197 and 0.9304 and 0.891
same,Anisotropy,[14],264.3 and 265.8 and 263
same,Anisotropy based on Raw Data (485),[14],269 and 266.3 and 264
same,"Normalised anisotropy (0 nM MN551 = 1, free probe = 0)",[14],0.9183 and 0.9237 and 0.9268
same,Anisotropy,[15],266.2 and 263.8 and 260.7
same,"Normalised anisotropy (0 nM MN551 = 1, free probe = 0)",[15],0.9468 and 0.9195 and 0.9303
same,"Fb, fraction bound",MN551 185.934 nM; Cycle 4 (15 min),0.9745 and 0.9717 and 0.9847
same,"Fb, fraction bound",MN551 185.934 nM; Cycle 5 (20 min),0.9684 and 0.9475 and 0.9883
same,"Fb, fraction bound",MN551 185.934 nM; Cycle 6 (25 min),0.9397 and 0.9626 and 0.9677
same,"Anisotropy data 485,520,520",[16],271.6 and 259.3 and 263.7
same,Fb,[16],0.998 and 1.002 and 1.058
same,"Fb, fraction bound",[16],0.9338 and 0.9401 and 0.9533
same,Anisotropy,[17],273.9 and 274.1 and 271.1
same,"Anisotropy data 485,520,520",[17],267.5 and 260.6 and 263.3
same,Fb,[17],0.9943 and 1 and 1.048 and 0.9739 and 0.951 and 0.9562
same,Anisotropy,[18],271.4 and 270.3 and 271
same,"Anisotropy data 485,520,520",[18],267.9 and 259.7 and 261.7
same,Fb,[18],0.9807 and 1.029 and 1.006 and 0.9574 and 0.9103 and 0.9506
same,Anisotropy,[19],271.8 and 272.5 and 270.9
same,"Anisotropy data 485,520,520",[19],267 and 258.5 and 259.4
same,Fb,[19],0.9961 and 1.001 and 1.027 and 0.9557 and 0.9425 and 0.9511
same,Anisotropy,[20],271.5 and 268.3 and 268.1
same,Fb,[20],0.9609 and 0.9187 and 0.9448
same,Anisotropy,MN551 185.934 nM; Cycle 11 (50 min); n=1,267 and 260.7 and 257.4
same,Anisotropy,[21],264.6 and 257.3 and 257.1
same,Anisotropy based on Raw Data (485),[21],272.2 and 272 and 265.5
same,Anisotropy,[22],263.3 and 254.6 and 258.3
same,Anisotropy based on Raw Data (485),[22],275 and 271.6 and 267
same,Anisotropy,[23],264.5 and 255.7 and 256.1
same,Anisotropy based on Raw Data (485),[23],272.1 and 268.8 and 264
same,Anisotropy,[24],261.8 and 255.7 and 253.9
same,Anisotropy based on Raw Data (485),[24],270.4 and 267.6 and 263.4
same,Anisotropy,[25],261 and 254.7 and 255.1
same,Anisotropy based on Raw Data (485),[25],269.3 and 266.9 and 263
same,"Anisotropy data 485,520,520",MN551 185.934 nM; Cycle 19 (90 min); n=1,263.2 and 263.4 and 263.7
same,"Anisotropy data 485,520,520",MN551 185.934 nM; Cycle 20 (95 min); n=1,262.6 and 262.4 and 259.2
same,Fb,"MN551 195.312 nM, Cycle 7 (30 min)",0.8753 and 0.9172 and 0.903
same,Anisotropy based on Raw Data (485),[26],278.8 and 276 and 274.1
same,Fb,[26],0.861 and 0.9289 and 0.9206
same,Anisotropy based on Raw Data (485),[27],280 and 275.7 and 270.3
same,Fb,[27],0.8638 and 0.943 and 0.8976
same,Anisotropy based on Raw Data (485),[28],276 and 273.8 and 270.5
same,Fb,[28],0.83 and 0.9149 and 0.9175
same,Anisotropy,"MN551 195.312 nM, Cycle 13 (60 min), n=1",271.3 and 273.4 and 270.8
same,Anisotropy,"MN551 195.312 nM, Cycle 14 (65 min), n=1",271.6 and 273.5 and 270.5
same,Anisotropy,"MN551 195.312 nM, Cycle 15 (70 min), n=1",268.7 and 272.5
same,Anisotropy,"MN551 195.312 nM, Cycle 16 (75 min), n=1",269 and 270.6 and 268
same,Anisotropy,"MN551 195.312 nM, Cycle 17 (80 min), n=1",266.5 and 267.6 and 268.6
